Results are given in words; binding and its absence hold for the method and conditions named. Some results given as binding are weak or reduced against the parent protein; the word gives no strength.
Target: mouse PD-L1 (mouse) (UniProt Q9EP73)
Test: SPR Biacore

Chains of the proteins cited; added tags and fusions are not shown.
UniProt Q9EP73: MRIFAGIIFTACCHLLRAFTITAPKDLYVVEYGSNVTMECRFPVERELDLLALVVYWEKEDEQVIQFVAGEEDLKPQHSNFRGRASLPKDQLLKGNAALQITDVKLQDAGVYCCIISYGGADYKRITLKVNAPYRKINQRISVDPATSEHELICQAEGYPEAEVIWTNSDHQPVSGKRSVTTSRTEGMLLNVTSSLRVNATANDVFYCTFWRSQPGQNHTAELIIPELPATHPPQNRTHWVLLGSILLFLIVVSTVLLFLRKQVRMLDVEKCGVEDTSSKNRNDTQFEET

## human PD-1 (from UniProt Q15116 25-170) (receptor)
  binding: binds
